According to publication PMC8074078:
Where two headings read alike, the source gives them in different places. No constants are given. Whether binding was seen depends on the method and setting. In cells and extracts the contact can be indirect. A yes stands for co-enrichment or nearness to the bait. Other partners may have been found.

The chains behind the UniProt entries cited, without tags or fusion partners. Where a name states a change or a piece, a line headed by the entry shows the natural chain unless it says otherwise. A line that says so, or that is headed by a name, gives the form on record, which may keep a tag or linker.
His6-GST-PACRG (Q96M98, form named): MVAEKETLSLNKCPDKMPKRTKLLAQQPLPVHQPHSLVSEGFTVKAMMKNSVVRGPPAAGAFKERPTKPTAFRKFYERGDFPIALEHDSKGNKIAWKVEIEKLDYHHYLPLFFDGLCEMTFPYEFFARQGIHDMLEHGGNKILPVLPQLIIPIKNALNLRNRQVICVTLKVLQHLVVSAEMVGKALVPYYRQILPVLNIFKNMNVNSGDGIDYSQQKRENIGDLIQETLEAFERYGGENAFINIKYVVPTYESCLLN
UniProt Q9BUI4: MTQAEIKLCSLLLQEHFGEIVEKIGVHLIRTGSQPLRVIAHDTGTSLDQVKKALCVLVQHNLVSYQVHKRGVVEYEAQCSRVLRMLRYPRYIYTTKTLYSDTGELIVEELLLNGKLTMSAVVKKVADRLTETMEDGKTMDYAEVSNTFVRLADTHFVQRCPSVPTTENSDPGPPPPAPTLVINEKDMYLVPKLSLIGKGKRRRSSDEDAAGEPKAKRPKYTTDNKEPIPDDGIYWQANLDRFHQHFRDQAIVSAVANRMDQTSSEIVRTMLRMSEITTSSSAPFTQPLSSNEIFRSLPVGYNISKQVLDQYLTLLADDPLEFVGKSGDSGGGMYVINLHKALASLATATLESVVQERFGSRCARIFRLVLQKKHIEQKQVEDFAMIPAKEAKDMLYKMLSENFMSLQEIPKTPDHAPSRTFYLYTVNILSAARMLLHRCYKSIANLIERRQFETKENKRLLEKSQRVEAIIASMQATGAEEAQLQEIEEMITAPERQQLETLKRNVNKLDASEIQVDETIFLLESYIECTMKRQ
UniProt P61764: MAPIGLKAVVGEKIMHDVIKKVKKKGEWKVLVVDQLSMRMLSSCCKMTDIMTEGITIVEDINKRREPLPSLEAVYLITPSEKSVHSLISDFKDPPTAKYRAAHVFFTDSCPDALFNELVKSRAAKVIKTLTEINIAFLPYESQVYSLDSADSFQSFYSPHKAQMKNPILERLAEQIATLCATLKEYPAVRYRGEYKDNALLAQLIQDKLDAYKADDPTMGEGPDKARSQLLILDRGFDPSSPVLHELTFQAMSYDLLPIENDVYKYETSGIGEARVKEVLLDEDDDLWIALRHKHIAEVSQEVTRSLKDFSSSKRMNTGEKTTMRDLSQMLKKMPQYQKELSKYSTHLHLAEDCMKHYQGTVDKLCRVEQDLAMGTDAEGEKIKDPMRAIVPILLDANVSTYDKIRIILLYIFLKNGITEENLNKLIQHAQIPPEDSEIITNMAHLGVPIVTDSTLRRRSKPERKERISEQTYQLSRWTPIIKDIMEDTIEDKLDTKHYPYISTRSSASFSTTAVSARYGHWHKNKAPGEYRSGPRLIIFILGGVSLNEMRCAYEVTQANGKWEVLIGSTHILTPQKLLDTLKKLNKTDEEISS
UniProt Q96AE4: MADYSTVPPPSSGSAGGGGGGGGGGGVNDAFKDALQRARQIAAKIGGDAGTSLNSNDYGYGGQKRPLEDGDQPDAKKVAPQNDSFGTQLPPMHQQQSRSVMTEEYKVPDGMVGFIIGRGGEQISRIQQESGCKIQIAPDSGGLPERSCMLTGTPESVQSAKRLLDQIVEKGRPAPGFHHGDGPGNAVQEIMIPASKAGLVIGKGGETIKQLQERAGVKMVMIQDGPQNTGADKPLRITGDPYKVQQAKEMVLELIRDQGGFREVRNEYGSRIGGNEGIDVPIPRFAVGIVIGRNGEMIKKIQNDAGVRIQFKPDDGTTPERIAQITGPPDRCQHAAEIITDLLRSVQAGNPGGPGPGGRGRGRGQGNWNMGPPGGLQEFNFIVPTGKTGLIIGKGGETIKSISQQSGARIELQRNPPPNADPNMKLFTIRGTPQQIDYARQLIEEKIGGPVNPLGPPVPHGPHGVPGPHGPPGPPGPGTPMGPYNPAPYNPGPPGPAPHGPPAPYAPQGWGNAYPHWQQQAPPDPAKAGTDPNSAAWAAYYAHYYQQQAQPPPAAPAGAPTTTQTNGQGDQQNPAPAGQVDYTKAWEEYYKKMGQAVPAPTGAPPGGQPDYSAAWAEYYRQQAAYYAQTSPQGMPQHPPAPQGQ
UniProt Q9UGJ1: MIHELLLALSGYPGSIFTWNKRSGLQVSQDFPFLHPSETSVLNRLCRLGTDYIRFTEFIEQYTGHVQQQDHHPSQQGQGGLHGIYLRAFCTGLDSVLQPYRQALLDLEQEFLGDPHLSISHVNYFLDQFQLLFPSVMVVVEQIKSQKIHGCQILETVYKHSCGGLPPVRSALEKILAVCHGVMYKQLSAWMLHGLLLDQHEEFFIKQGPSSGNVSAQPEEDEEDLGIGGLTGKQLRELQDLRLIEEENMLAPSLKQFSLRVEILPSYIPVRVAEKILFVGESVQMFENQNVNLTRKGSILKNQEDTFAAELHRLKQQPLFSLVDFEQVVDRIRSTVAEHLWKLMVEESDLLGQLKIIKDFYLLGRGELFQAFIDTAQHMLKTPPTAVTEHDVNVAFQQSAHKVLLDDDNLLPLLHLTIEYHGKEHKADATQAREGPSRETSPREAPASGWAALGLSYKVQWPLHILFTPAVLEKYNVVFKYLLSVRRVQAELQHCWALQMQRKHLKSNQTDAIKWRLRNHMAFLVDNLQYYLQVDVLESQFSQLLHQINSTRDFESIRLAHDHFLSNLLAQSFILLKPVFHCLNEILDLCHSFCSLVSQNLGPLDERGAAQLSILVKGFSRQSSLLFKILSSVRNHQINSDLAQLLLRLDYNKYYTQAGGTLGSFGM
UniProt P55036: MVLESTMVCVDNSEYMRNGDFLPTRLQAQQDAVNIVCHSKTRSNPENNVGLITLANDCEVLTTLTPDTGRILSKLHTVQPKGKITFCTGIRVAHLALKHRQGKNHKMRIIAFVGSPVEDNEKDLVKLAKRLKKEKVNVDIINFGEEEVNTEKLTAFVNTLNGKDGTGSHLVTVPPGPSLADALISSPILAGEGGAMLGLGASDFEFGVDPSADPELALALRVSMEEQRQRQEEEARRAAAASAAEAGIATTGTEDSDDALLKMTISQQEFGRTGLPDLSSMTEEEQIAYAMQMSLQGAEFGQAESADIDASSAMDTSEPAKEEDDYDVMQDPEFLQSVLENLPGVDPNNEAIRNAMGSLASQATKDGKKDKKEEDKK
UniProt Q676U5: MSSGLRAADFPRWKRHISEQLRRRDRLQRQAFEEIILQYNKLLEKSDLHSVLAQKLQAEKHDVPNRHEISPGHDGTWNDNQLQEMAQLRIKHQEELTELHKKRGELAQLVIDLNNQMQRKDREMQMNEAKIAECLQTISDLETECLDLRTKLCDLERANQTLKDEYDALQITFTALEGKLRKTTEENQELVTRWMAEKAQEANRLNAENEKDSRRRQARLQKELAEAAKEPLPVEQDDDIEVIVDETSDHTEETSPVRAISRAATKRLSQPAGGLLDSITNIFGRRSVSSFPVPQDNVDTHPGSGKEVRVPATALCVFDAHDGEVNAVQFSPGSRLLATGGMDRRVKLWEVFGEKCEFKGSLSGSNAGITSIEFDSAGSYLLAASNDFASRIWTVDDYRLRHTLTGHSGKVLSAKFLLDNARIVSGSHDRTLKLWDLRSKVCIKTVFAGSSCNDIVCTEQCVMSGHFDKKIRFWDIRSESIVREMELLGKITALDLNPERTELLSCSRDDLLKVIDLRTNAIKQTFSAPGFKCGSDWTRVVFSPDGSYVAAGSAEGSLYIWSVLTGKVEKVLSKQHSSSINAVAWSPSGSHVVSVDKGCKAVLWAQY
UniProt P84022: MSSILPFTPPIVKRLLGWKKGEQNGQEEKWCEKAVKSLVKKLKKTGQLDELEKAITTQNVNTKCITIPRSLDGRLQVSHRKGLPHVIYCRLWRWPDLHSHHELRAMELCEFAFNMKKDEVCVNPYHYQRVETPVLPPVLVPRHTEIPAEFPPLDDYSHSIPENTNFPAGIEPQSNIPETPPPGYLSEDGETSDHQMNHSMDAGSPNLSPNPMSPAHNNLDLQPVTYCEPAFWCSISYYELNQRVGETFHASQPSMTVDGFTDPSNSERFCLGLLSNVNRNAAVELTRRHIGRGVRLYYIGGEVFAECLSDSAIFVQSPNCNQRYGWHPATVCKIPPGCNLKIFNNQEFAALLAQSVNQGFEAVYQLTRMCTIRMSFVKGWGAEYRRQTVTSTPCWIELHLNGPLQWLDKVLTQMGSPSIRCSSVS
UniProt P50219: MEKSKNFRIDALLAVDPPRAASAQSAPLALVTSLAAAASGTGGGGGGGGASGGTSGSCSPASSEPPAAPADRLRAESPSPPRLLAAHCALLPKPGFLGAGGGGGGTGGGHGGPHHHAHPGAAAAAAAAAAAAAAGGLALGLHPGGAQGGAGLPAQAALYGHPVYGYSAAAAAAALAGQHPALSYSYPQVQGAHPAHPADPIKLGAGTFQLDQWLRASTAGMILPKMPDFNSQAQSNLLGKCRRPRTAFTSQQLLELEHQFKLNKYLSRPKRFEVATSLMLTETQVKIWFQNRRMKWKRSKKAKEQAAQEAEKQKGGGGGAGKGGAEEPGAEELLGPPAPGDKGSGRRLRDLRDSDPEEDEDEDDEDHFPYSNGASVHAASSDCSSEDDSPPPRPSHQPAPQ
UniProt P25490: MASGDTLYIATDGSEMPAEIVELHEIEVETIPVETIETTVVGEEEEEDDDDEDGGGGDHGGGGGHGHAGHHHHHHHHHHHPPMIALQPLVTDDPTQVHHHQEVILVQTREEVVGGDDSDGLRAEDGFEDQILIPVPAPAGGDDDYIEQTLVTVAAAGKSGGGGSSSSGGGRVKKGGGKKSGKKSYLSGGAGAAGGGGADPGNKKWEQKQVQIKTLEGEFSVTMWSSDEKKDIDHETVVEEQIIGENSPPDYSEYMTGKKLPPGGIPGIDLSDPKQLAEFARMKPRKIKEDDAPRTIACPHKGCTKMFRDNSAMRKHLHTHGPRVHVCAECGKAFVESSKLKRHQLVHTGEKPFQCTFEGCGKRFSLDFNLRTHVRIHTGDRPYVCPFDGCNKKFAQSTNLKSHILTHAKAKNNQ
UniProt P17028: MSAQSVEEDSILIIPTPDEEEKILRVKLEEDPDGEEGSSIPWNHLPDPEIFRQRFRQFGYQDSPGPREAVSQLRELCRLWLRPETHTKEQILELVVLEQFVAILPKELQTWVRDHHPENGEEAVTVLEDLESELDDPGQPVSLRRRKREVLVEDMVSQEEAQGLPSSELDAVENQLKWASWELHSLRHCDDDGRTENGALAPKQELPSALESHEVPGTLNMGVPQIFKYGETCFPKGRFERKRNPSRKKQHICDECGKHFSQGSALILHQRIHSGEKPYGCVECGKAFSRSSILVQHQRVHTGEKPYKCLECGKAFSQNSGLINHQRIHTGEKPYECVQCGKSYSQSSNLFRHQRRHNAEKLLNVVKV
UniProt Q13425: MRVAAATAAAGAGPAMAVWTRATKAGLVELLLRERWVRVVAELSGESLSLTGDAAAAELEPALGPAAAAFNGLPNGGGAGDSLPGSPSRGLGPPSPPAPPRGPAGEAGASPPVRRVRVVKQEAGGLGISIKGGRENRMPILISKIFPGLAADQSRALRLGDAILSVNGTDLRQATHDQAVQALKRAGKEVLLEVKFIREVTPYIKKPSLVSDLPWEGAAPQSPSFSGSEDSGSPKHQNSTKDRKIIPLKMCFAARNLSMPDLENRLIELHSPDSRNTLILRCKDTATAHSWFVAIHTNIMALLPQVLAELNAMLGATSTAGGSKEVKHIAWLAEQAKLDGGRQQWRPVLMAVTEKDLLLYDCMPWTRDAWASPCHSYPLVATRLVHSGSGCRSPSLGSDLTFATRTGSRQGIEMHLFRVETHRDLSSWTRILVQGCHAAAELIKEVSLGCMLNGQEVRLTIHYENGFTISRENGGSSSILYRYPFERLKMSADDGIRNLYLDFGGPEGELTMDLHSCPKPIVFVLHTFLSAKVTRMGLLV
UniProt Q9BVA1: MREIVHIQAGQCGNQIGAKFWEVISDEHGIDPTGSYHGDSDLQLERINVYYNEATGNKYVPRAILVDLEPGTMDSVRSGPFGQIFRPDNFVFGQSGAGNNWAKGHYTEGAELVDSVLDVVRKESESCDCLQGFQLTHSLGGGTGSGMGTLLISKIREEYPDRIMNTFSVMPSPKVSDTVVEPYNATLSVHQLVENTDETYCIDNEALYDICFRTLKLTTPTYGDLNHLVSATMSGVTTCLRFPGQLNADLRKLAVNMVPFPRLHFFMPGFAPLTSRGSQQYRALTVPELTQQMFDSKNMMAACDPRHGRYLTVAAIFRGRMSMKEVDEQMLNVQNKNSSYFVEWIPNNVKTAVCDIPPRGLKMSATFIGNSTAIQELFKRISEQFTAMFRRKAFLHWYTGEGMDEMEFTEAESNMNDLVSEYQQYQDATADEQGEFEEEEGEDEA

Key:
Assay in all cases: affinity purification with mass spectrometry; purified His6-tagged bait coupled to Ni2+-charged resin (2 h, 4 °C), incubated 2 h with supernatant of HEK293T cell lysate, washed three times with 5 mM imidazole; bound proteins identified by LC-MS/MS; controls: Ni2+-charged resin alone (for His6-PACRG) and His6-GST (for His6-GST-PACRG); only proteins found with both baits accepted; only the target purified
[1] = target: His6-PACRG (Parkin co-regulated gene) (human) (UniProt Q96M98)
[2] = target: His6-GST-PACRG (human) (UniProt Q96M98)
[3] = target: His6-PACRG (Parkin co-regulated gene) (human) (UniProt Q96M98); remark: listed apart in the source
[4] = target: His6-GST-PACRG (human) (UniProt Q96M98); remark: listed apart in the source

PPP2R1B (from UniProt P30154 1-601) was tested, and the binding [1] was “binds” and the binding [2] was “binds”.

POLR3C (from UniProt Q9BUI4 1-534) was tested, and the binding [1] was “binds” and the binding [2] was “binds”.

In the case of STXBP1 (from UniProt P61764 1-594), the binding [1] is reported as “binds” and the binding [2] is reported as “binds”.

HSPA1A (from UniProt P0DMV8 1-641) was tested, and the binding [1] was “binds” and the binding [2] was “binds”.

In the case of ZNF787 (from UniProt Q6DD87 1-382), the binding [1] is reported as “binds” and the binding [2] is reported as “binds”.

FUBP1 (from UniProt Q96AE4 1-644) was tested, and the binding [1] was “binds” and the binding [2] was “binds”.

SMAD4 (from UniProt Q13485 1-552) was tested, and the binding [1] was “binds” and the binding [2] was “binds”.

HSPA5 (from UniProt P11021 19-654) was tested, and the binding [1] was “binds” and the binding [2] was “binds”.

With TUBGCP4 (from UniProt Q9UGJ1 1-667) the binding [1] was “binds” and the binding [2] was “binds”.

With “proteasome regulatory subunit PSMD4 (from UniProt P55036 1-377)” the binding [1] was “binds” and the binding [2] was “binds”.

In the case of ATG16L1 (from UniProt Q676U5 1-607), the binding [1] is reported as “binds” and the binding [2] is reported as “binds”.

In the case of SMAD3 (from UniProt P84022 1-425), the binding [1] is reported as “binds” and the binding [2] is reported as “binds”.

In the case of MNX1 (from UniProt P50219 1-401), the binding [1] is reported as “binds” and the binding [2] is reported as “binds”.

With HSPA8 (from UniProt P11142 1-646) the binding [1] was “binds” and the binding [2] was “binds”.

HSPD1 (from UniProt P10809 27-573) was tested, and the binding [1] was “binds” and the binding [2] was “binds”.

For BCLAF1 (from UniProt Q9NYF8 1-920), the binding [1] was “binds” and the binding [2] was “binds”.

In the case of “transcription factor YY1 (Yin Yang 1) (from UniProt P25490 1-414)”, the binding [1] is reported as “binds” and the binding [2] is reported as “binds”.

For IGF2BP2 (from UniProt Q9Y6M1 1-599), the binding [1] was “binds” and the binding [2] was “binds”.

In the case of RSRC2 (from UniProt Q7L4I2 1-434), the binding [1] is reported as “binds” and the binding [2] is reported as “binds”.

For USP35 (from UniProt Q9P2H5 1-1018), the binding [1] was “binds” and the binding [2] was “binds”.

HEXIM1 (from UniProt O94992 1-359) was tested, and the binding [1] was “binds” and the binding [2] was “binds”.

SMAD1 (from UniProt Q15797 1-465) was tested, and the binding [1] was “binds” and the binding [2] was “binds”.

For IRF3 (from UniProt Q14653 1-427), the binding [1] was “binds” and the binding [2] was “binds”.

In the case of DHX15 (from UniProt O43143 1-795), the binding [1] is reported as “binds” and the binding [2] is reported as “binds”.

In the case of ZNF24 (from UniProt P17028 1-368), the binding [1] is reported as “binds” and the binding [2] is reported as “binds”.

SNTB2 (from UniProt Q13425 1-540) was tested, and the binding [1] was “binds” and the binding [2] was “binds”.

With TUBB2B (from UniProt Q9BVA1 1-445) the binding [1] was “binds” and the binding [2] was “binds”.

B1: UBP1 (protein, UniProt Q9NZI7 1-540)
chain: MAWVLKMDEVIESGLVHDFDASLSGIGQELGAGAYSMSDVLALPIFKQEDSSLPLDGETEHPPFQYVMCAATSPAVKLHDETLTYLNQGQSYEIRMLDNRKMGDMPEINGKLVKSIIRVVFHDRRLQYTEHQQLEGWKWNRPGDRLLDLDIPMSVGIIDTRTNPSQLNAVEFLWDPAKRTSAFIQVHCISTEFTPRKHGGEKGVPFRIQVDTFKQNENGEYTDHLHSASCQIKVFKPKGADRKQKTDREKMEKRTAHEKEKYQPSYDTTILTEMRLEPIIEDAVEHEQKKSSKRTLPADYGDSLAKRGSCSPWPDAPTAYVNNSPSPAPTFTSPQQSTCSVPDSNSSSPNHQGDGASQTSGEQIQPSATIQETQQWLLKNRFSSYTRLFSNFSGADLLKLTKEDLVQICGAADGIRLYNSLKSRSVRPRLTIYVCREQPSSTVLQGQQQAASSASENGSGAPYVYHAIYLEEMIASEVARKLALVFNIPLHQINQVYRQGPTGIHILVSDQMVQNFQDESCFLFSTVKAESSDGIHIILK
In the case of B1, the binding [3] is reported as “binds” and the binding [4] is reported as “binds”.

B2: USP39 (protein, UniProt Q53GS9 1-565)
chain: MSGRSKRESRGSTRGKRESESRGSSGRVKRERDREREPEAASSRGSPVRVKREFEPASAREAPASVVPFVRVKREREVDEDSEPEREVRAKNGRVDSEDRRSRHCPYLDTINRSVLDFDFEKLCSISLSHINAYACLVCGKYFQGRGLKSHAYIHSVQFSHHVFLNLHTLKFYCLPDNYEIIDSSLEDITYVLKPTFTKQQIANLDKQAKLSRAYDGTTYLPGIVGLNNIKANDYANAVLQALSNVPPLRNYFLEEDNYKNIKRPPGDIMFLLVQRFGELMRKLWNPRNFKAHVSPHEMLQAVVLCSKKTFQITKQGDGVDFLSWFLNALHSALGGTKKKKKTIVTDVFQGSMRIFTKKLPHPDLPAEEKEQLLHNDEYQETMVESTFMYLTLDLPTAPLYKDEKEQLIIPQVPLFNILAKFNGITEKEYKTYKENFLKRFQLTKLPPYLIFCIKRFTKNNFFVEKNPTIVNFPITNVDLREYLSEEVQAVHKNTTYDLIANIVHDGKPSEGSYRIHVLHHGTGKWYELQDLQVTDILPQMITLSEAYIQIWKRRDNDETNQQGA
In the case of B2, the binding [3] is reported as “binds” and the binding [4] is reported as “binds”.

B3: HOMER1 (protein, UniProt Q86YM7 1-354)
chain: MGEQPIFSTRAHVFQIDPNTKKNWVPTSKHAVTVSYFYDSTRNVYRIISLDGSKAIINSTITPNMTFTKTSQKFGQWADSRANTVYGLGFSSEHHLSKFAEKFQEFKEAARLAKEKSQEKMELTSTPSQESAGGDLQSPLTPESINGTDDERTPDVTQNSEPRAEPTQNALPFSHSSAISKHWEAELATLKGNNAKLTAALLESTANVKQWKQQLAAYQEEAERLHKRVTELECVSSQANAVHTHKTELNQTIQELEETLKLKEEEIERLKQEIDNARELQEQRDSLTQKLQEVEIRNKDLEGQLSDLEQRLEKSQNEQEAFRNNLKTLLEILDGKIFELTELRDNLAKLLECS
With B3 the binding [3] was “binds” and the binding [4] was “binds”.

B4: CSTF2 (protein, UniProt P33240 1-577)
chain: MAGLTVRDPAVDRSLRSVFVGNIPYEATEEQLKDIFSEVGPVVSFRLVYDRETGKPKGYGFCEYQDQETALSAMRNLNGREFSGRALRVDNAASEKNKEELKSLGTGAPVIESPYGETISPEDAPESISKAVASLPPEQMFELMKQMKLCVQNSPQEARNMLLQNPQLAYALLQAQVVMRIVDPEIALKILHRQTNIPTLIAGNPQPVHGAGPGSGSNVSMNQQNPQAPQAQSLGGMHVNGAPPLMQASMQGGVPAPGQMPAAVTGPGPGSLAPGGGMQAQVGMPGSGPVSMERGQVPMQDPRAAMQRGSLPANVPTPRGLLGDAPNDPRGGTLLSVTGEVEPRGYLGPPHQGPPMHHVPGHESRGPPPHELRGGPLPEPRPLMAEPRGPMLDQRGPPLDGRGGRDPRGIDARGMEARAMEARGLDARGLEARAMEARAMEARAMEARAMEARAMEVRGMEARGMDTRGPVPGPRGPIPSGMQGPSPINMGAVVPQGSRQVPVMQGTGMQGASIQGGSQPGGFSPGQNQVTPQDHEKAALIMQVLQLTADQIAMLPPEQRQSILILKEQIQKSTGAP
In the case of B4, the binding [3] is reported as “binds” and the binding [4] is reported as “binds”.

B5: RNPS1 (protein, UniProt Q15287 1-305)
chain: MDLSGVKKKSLLGVKENNKKSSTRAPSPTKRKDRSDEKSKDRSKDKGATKESSEKDRGRDKTRKRRSASSGSSSTRSRSSSTSSSGSSTSTGSSSGSSSSSASSRSGSSSTSRSSSSSSSSGSPSPSRRRHDNRRRSRSKSKPPKRDEKERKRRSPSPKPTKVHIGRLTRNVTKDHIMEIFSTYGKIKMIDMPVERMHPHLSKGYAYVEFENPDEAEKALKHMDGGQIDGQEITATAVLAPWPRPPPRRFSPPRRMLPPPPMWRRSPPRMRRRSRSPRRRSPVRRRSRSPGRRRHRSRSSSNSSR
In the case of B5, the binding [3] is reported as “binds” and the binding [4] is reported as “binds”.

B6: SF1 (protein, UniProt Q15637 1-639)
chain: MATGANATPLDFPSKKRKRSRWNQDTMEQKTVIPGMPTVIPPGLTREQERAYIVQLQIEDLTRKLRTGDLGIPPNPEDRSPSPEPIYNSEGKRLNTREFRTRKKLEEERHNLITEMVALNPDFKPPADYKPPATRVSDKVMIPQDEYPEINFVGLLIGPRGNTLKNIEKECNAKIMIRGKGSVKEGKVGRKDGQMLPGEDEPLHALVTANTMENVKKAVEQIRNILKQGIETPEDQNDLRKMQLRELARLNGTLREDDNRILRPWQSSETRSITNTTVCTKCGGAGHIASDCKFQRPGDPQSAQDKARMDKEYLSLMAELGEAPVPASVGSTSGPATTPLASAPRPAAPANNPPPPSLMSTTQSRPPWMNSGPSESRPYHGMHGGGPGGPGGGPHSFPHPLPSLTGGHGGHPMQHNPNGPPPPWMQPPPPPMNQGPHPPGHHGPPPMDQYLGSTPVGSGVYRLHQGKGMMPPPPMGMMPPPPPPPSGQPPPPPSGPLPPWQQQQQQPPPPPPPSSSMASSTPLPWQQNTTTTTTSAGTGSIPPWQQQQAAAAASPGAPQMQGNPTMVPLPPGVQPPLPPGAPPPPPPPPPGSAGMMYAPPPPPPPPMDPSNFVTMMGMGVAGMPPFGMPPAPPPPPPQN
With B6 the binding [3] was “binds” and the binding [4] was “binds”.
